Results are given in words; binding and its absence hold for the method and conditions named. In cells and extracts the contact can be indirect. Binding can be weak; no strength is given.
Experiments:
[1] = molecular target: FLAG-tagged SAFAΔRGG (RNA-binding-deficient mutant) (UniProt Q00839); assay: co-IP; lysates of HEK293 cells overexpressing FLAG-tagged wild-type or mutant SAFA; IP with antibody to FLAG, blots for FLAG, BMI1 and EZH2; ratios by densitometry
[2] = molecular target: FLAG-tagged SAFAΔSAF (DNA-binding-deficient mutant) (UniProt Q00839); assay: as above

By UniProt entry, the sequences of proteins in these tests, tags left out. Where a name states a change or a piece, a line headed by the entry shows the natural chain unless it says otherwise.
UniProt Q00839: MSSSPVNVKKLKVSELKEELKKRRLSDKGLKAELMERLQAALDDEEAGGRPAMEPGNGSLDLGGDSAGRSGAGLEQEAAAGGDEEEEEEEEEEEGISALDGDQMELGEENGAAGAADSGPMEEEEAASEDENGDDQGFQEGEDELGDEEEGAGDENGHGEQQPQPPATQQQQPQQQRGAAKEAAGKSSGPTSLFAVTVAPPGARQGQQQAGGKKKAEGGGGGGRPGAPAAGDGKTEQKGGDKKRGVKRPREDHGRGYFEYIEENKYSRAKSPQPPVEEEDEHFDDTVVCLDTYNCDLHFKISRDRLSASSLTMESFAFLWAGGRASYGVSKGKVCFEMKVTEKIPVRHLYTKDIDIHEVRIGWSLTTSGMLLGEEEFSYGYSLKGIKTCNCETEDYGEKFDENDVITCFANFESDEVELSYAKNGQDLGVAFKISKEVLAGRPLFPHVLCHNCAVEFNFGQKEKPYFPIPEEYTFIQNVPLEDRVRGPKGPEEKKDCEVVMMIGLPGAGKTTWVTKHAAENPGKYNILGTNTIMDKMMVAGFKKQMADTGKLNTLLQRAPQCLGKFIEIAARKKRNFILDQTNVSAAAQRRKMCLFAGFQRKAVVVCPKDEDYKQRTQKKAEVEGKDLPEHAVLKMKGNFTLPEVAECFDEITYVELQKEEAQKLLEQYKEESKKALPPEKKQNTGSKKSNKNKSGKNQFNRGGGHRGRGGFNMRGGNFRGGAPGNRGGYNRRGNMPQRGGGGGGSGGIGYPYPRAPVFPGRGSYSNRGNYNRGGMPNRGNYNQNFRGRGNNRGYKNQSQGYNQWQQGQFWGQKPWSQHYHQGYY
UniProt P35226: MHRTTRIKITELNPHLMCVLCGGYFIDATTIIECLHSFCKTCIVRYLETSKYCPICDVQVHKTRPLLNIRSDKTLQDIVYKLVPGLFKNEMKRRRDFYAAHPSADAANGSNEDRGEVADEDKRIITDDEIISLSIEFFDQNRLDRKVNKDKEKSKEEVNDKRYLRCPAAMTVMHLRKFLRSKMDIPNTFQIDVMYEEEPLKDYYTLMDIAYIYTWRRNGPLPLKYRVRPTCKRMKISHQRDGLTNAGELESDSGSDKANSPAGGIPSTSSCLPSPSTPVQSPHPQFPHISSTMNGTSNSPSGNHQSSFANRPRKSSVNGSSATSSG

With “BMI1, endogenous in HEK293 cells (from UniProt P35226 1-326)” the binding [1] was “binds” and the binding [2] was “binds”.
